Reference: article PMC8904561

Sequences of proteins named here, by UniProt entry; tags and fusion partners are left off. A change or cut given only in a name is not applied to a line headed by its entry.
UniProt P12830: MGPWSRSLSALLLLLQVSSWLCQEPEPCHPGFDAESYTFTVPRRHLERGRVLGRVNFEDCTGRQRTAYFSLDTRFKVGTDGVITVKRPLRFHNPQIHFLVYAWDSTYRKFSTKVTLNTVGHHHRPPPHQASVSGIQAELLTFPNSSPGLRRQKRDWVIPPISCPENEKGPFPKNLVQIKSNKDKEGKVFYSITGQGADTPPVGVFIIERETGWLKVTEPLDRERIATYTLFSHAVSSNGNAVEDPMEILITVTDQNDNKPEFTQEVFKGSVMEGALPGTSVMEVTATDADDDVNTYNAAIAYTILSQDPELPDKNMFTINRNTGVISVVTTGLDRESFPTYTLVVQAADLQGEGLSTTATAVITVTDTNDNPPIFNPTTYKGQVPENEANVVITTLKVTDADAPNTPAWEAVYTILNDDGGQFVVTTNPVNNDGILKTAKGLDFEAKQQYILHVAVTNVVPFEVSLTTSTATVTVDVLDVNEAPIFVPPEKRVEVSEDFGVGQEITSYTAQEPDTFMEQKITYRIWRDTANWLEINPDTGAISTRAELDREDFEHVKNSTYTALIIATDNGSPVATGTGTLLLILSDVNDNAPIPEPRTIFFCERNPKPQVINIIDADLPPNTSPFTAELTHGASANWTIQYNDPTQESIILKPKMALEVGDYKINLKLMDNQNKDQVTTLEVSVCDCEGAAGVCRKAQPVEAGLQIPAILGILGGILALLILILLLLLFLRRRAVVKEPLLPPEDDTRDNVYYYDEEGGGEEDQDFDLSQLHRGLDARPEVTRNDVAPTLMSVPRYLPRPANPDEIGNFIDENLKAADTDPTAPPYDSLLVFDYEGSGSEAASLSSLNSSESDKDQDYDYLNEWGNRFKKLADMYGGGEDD
UniProt P37802: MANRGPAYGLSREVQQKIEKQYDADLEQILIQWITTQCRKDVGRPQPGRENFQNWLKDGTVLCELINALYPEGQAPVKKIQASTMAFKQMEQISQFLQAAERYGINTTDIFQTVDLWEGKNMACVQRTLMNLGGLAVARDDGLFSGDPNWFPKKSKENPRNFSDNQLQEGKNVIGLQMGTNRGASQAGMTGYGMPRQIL

Biological target: E-cadherin protein (Proteintech) (UniProt P12830)
Experiment: MST; E-cadherin at a constant concentration (printed as 1 mM), 2-fold serial dilutions of TAGLN2; RED-NHS labelling; 50 mM Tris-HCl pH 7.4, 150 mM NaCl, 10 mM MgCl2, 0.05% Tween-20; 15 min at room temperature; Monolith NT.115, 60% MST power; both purified

binding: binds
Substance: TAGLN2 protein (purified recombinant) (from UniProt P37802 1-199)

Results are given in words; binding and its absence hold for the method and conditions named. Binding can be weak; no strength is given.
